## Screening data, single-dose tests

A: 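Whole-parasite assay of Trypanosoma brucei over 72 hours; the read-out is not stated. Compounds at 30 µM. Higher reads as stronger inhibition (inferred: compounds with an IC50 in retests scored well above the rest). Values scatter widely below zero; nearly all retest evidence comes from the higher of the two concentrations used. About 64,000 compounds were tested under these conditions; 1.5% (about 940) showed 50% or more at least once.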
B: 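Assay of Toxoplasma gondii numbers, read through their beta-galactosidase reporter with a colour substrate. Tested at 10 µM. The record gives no direction; the compounds picked for IC50 retests had high values, so higher reads as fewer parasites. About 67,000 compounds were tested under these conditions; 0.38% (about 260) showed 50% or more at least once.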

Values are the deposited “Percent Effect”, in %. How 0% and 100% were set is not recorded. Most values in the screen are low, and negative values occur. The compounds are a random part of those screened.

* Cc1cnc(N2CCCC3(CCN(Cc4csc(C)n4)C3=O)C2)nc1.O=C(O)C(F)(F)F.O=C(O)C(F)(F)F (stereo not given) : A: 23.22%; B: 3.739%
* Cn1c(-c2ccccc2Cl)nc2cc(C(=O)NCCS(C)(=O)=O)cnc21 : A: 4.253%; B: 4.232%
* CNCc1n[nH]c(=O)n1CC1CCCCC1 : B: -1.021%
* CN(CCn1ccc2ccccc21)C(=O)Cc1nnn[nH]1 : A: -14.33%; B: 0.1504%
* CC(=O)NCCNCc1cn(CCN2CCSCC2)nc1C : A: -50.14%; B: 23.75%
* [H][C@@]12CCCCN(C)[C@]1([H])[C@@H](c1ccccc1)CCN2C(=O)c1snnc1C : A: -0.894%; B: -12.04%
* [H][C@]12CCN(C(=O)C3CC3)[C@@]1([H])CC[C@@H](COCc1csc(C)n1)O2 : A: -13.73%; B: 25.44%
* [H][C@]12CN(C(=O)c3nonc3C)CC[C@@]1(O)CCN(C1CCCCC1)C2 : A: -110.2%; B: 6.497%
* CCn1nccc1C(=O)N1CCCCC1CCc1ccc(O)cc1 (stereo not given) : A: -66.83%; B: 7.506%
* [H][C@@]12COC[C@]1(C(=O)NCc1ccccn1)CN(c1cc(OC)ncn1)C2 : A: -18.71%; B: -3.465%
* c1cnnc(N2CCCC(NCc3cccc4c3OCCCO4)C2)c1 (stereo not given) : A: -10.45%; B: -22.92%
* O=C(O)C(F)(F)F.[H][C@@]12COC[C@@H](C(=O)Nc3cnccn3)[C@]1([H])CN(C1CCC1)C2 : A: -9.316%; B: -2.267%
* Cc1cc(F)cc(S(=O)(=O)Nc2noc(C)n2)c1 : A: -22.14%; B: 3.277%
* CN1Cc2c(C(=O)N3CCOCC3)ncn2-c2ccccc2S1(=O)=O : B: -19.22%
* O=C1N(Cc2ccc(F)c(F)c2)CCCC12CCN(C1CCSCC1)C2 (stereo not given) : A: 50.02%; B: -3.965%
* Nc1ncncc1-c1noc([C@@H]2CCCN2Cc2cccnc2)n1 : A: -3.258%; B: 10.34%
* CCN1CCC2(CC1)CC(NC(=O)c1ccnnc1)c1ccccc12.O=C(O)C(F)(F)F (stereo not given) : A: -55.66%; B: 0.5933%
* COc1cccc(C(=O)C2CCCN(c3nccc(N)n3)C2)c1 (stereo not given) : A: -18.97%; B: -5.695%
* Cc1cc(NCc2csc(C)n2)no1 : A: 4.797%; B: -2.386%
* CN1CCCN(C(=O)c2cccn2-c2ccc3c(c2)OCCO3)CC1 : A: -21.23%; B: 11.33%
* NC(=O)NC1(C(=O)N2CCc3c(Cl)cccc3C2)CCCCC1 : A: -22.51%; B: 0.3921%
* [H][C@@]12CS(=O)(=O)C[C@]1([H])N(S(=O)(=O)c1cn(C)cn1)CCN2CC(C)C : A: -8.851%; B: 6.404%
* Cc1nc(C(=O)N2CCN(C(C)c3ccccc3F)CC2)cs1 (stereo not given) : A: -28.6%; B: -2.737%
* CCC1CN(c2cnn(C)c(=O)c2Br)CCO1 (stereo not given) : A: -71.21%; B: 1.582%
* CC(CC(=O)N1CCN(c2cnccn2)CC1)c1ccc(F)cc1 (stereo not given) : A: -67.22%; B: -2.575%
* Cc1cn2c(n1)CCC(NS(=O)(=O)c1ccc(C)s1)C2 (stereo not given) : A: -23.26%; B: -32.44%
* O=C(CCNS(=O)(=O)c1ccc2c(c1)CCCC2)NCc1ccoc1 : A: 30.79%; B: -3.084%
* CCc1noc(C(C)N2CCNCC2)n1 (stereo not given) : A: -0.1145%; B: 9.034%
* Cc1cccc(C)c1OCCCN1CCN(CC2CCCO2)CC1 (stereo not given) : A: 24.2%; B: -5.233%
* CC(C)OCC(=O)N1CCCN(Cc2ccc(C#N)cc2)CC1 : A: -9.52%; B: -20.18%
* COc1ccc(S(=O)(=O)Nc2cccnc2-n2cncn2)c(C)c1 : A: -35.15%; B: -34.87%
* Cn1c(Nc2cn[nH]c2)c(C#N)c(=O)n(C)c1=O : A: -31.41%; B: 1.116%
* O=C(C1CC(c2ccccc2)=NO1)N1CCCCc2ccccc21 (stereo not given) : A: -27.77%; B: -29.14%

The first 3 entries again:

- Cc1cnc(N2CCCC3(CCN(Cc4csc(C)n4)C3=O)C2)nc1.O=C(O)C(F)(F)F.O=C(O)C(F)(F)F (stereo not given) | A: 23.22%; B: 3.739%
- Cn1c(-c2ccccc2Cl)nc2cc(C(=O)NCCS(C)(=O)=O)cnc21 | A: 4.253%; B: 4.232%
- CNCc1n[nH]c(=O)n1CC1CCCCC1 | B: -1.021%

From ChEMBL document CHEMBL3988442, “University of Dundee, Small-Polar-MMV Screening Library” (2021).